Experiment in all cases: FRET or BRET
One experiment addresses GTF2F2 (human) (UniProt P13984).
The next experiment deals with T1, LSM2 (human) (UniProt Q9Y333).
T1 sequence: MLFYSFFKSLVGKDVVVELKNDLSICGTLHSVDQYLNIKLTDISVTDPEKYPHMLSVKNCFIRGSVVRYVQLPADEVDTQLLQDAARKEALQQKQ

Protein sequences, listed by entry. Tags and fused reporters are not part of them.
UniProt P13984: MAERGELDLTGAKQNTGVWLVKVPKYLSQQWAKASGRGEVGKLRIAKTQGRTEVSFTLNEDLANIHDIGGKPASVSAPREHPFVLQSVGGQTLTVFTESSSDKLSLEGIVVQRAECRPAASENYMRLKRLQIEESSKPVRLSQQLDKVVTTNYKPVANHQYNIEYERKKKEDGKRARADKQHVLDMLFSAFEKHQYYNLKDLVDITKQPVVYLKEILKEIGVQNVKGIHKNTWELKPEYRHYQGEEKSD
UniProt P35269: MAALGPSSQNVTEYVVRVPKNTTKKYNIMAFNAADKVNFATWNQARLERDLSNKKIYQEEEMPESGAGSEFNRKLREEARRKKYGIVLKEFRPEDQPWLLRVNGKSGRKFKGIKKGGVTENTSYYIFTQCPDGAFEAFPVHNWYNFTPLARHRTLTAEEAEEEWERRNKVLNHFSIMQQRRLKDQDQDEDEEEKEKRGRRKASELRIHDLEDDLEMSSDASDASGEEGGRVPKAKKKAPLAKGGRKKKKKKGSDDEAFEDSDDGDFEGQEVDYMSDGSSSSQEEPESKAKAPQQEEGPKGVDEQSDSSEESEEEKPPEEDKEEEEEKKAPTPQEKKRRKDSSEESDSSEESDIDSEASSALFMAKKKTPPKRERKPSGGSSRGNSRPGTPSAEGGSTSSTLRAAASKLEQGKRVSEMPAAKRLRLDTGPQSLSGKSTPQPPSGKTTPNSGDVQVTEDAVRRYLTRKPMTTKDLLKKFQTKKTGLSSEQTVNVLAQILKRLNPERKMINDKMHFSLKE
UniProt P62310: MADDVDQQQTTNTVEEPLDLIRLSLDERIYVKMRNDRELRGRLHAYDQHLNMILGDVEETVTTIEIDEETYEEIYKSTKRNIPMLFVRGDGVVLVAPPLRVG
UniProt Q9H081: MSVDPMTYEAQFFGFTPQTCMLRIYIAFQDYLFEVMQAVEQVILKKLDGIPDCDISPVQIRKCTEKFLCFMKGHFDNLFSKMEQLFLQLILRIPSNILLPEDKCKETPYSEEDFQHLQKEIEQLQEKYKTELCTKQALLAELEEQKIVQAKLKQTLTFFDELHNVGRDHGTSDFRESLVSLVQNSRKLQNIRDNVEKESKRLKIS

The next experiment concerns the target T2, PMF1 (human) (UniProt Q6P1K2).
T2 sequence: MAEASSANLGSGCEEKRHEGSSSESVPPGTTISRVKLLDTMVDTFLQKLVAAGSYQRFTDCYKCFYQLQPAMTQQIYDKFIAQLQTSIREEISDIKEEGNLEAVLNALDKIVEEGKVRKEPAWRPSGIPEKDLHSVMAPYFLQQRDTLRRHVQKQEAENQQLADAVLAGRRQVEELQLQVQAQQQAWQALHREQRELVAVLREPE

For another experiment, the target named is T3, DRAP1 (human) (UniProt Q14919).
T3 sequence: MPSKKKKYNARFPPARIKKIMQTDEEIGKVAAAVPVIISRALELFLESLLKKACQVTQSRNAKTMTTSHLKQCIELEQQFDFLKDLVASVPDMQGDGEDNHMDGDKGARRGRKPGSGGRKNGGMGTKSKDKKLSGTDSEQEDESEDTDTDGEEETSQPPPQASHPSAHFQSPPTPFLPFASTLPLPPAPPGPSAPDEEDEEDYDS

Another experiment deals with T4, BATF (human) (UniProt Q16520).
T4 sequence: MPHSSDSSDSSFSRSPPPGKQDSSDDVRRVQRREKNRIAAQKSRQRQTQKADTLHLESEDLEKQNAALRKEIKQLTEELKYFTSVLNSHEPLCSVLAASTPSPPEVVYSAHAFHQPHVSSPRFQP

These are yes or no findings as the source states them, for the method shown. Binding seen in cells or lysates may run through a third protein. Some binding calls cover weakened binding; strength is not graded here.

Consider GTF2F1 (from UniProt P35269 1-517), for which the binding entry with GTF2F2 (human) is recorded as “binds”. Consider LSM3 (from UniProt P62310 1-102), for which the binding result with LSM2 (human) is given as “binds”. In the case of MIS12 (from UniProt Q9H081 1-205), in the experiment with PMF1 (human), the binding result is “binds”.

B1: DR1 (protein, UniProt Q01658 1-176)
chain: MASSSGNDDDLTIPRAAINKMIKETLPNVRVANDARELVVNCCTEFIHLISSEANEICNKSEKKTISPEHVIQALESLGFGSYISEVKEVLQECKTVALKRRKASSRLENLGIPEEELLRQQQELFAKARQQQAELAQQEWLQMQQAAQQAQLAAASASASNQAGSSQDEEDDDDI
For B1, the binding entry in the experiment with DRAP1 (human) is listed as “binds”.

B2: JUNB (protein, UniProt P17275 1-347)
chain: MCTKMEQPFYHDDSYTATGYGRAPGGLSLHDYKLLKPSLAVNLADPYRSLKAPGARGPGPEGGGGGSYFSGQGSDTGASLKLASSELERLIVPNSNGVITTTPTPPGQYFYPRGGGSGGGAGGAGGGVTEEQEGFADGFVKALDDLHKMNHVTPPNVSLGATGGPPAGPGGVYAGPEPPPVYTNLSSYSPASASSGGAGAAVGTGSSYPTTTISYLPHAPPFAGGHPAQLGLGRGASTFKEEPQTVPEARSRDATPPVSPINMEDQERIKVERKRLRNRLAATKCRKRKLERIARLEDKVKTLKAENAGLSSTAGLLREQVAQLKQKVMTHVSNGCQLLLGVKGHAF
In the case of B2, the binding result in the experiment with BATF (human) is on record as “binds”.

The record behind these values is paper doi:10.1101/2021.08.25.457734.
